Results are given in words; binding and its absence hold for the method and conditions named. Some binding calls cover weakened binding; strength is not graded here. Where a sequence is shown, tags or fusion partners need not be part of it. One block for each binder: values may come before it.
Target: T1, FANCC (MBP-FANCC) (UniProt Q00597)
T1 sequence: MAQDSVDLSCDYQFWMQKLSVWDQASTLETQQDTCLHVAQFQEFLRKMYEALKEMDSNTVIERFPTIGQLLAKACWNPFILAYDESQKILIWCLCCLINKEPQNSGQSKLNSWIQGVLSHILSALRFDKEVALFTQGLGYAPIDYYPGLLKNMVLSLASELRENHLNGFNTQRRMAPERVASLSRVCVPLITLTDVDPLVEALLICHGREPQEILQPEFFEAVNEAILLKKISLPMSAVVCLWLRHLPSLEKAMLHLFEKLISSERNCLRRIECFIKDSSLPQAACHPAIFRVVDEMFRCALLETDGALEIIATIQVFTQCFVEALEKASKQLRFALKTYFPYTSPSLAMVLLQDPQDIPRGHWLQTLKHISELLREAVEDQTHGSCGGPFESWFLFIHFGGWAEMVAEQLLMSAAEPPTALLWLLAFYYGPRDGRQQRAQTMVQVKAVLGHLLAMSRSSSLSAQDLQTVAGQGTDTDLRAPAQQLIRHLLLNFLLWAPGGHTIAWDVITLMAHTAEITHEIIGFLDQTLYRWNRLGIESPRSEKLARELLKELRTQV
Test: co-purification; complexes purified as previously described [11]; the procedure is not told here; Coomassie gel of the purified complexes

binding: binds
B1: FANCF (protein, UniProt Q9NPI8 1-374)
chain: MESLLQHLDRFSELLAVSSTTYVSTWDPATVRRALQWARYLRHIHRRFGRHGPIRTALERRLHNQWRQEGGFGRGPVPGLANFQALGHCDVLLSLRLLENRALGDAARYHLVQQLFPGPGVRDADEETLQESLARLARRRSAVHMLRFNGYRENPNLQEDSLMKTQAELLLERLQEVGKAEAERPARFLSSLWERLPQNNFLKVIAVALLQPPLSRRPQEELEPGIHKSPGEGSQVLVHWLLGNSEVFAAFCRALPAGLLTLVTSRHPALSPVYLGLLTDWGQRLHYDLQKGIWVGTESQDVPWEELHNRFQSLCQAPPPLKDKVLTALETCKAQDGDFEVPGLSIWTDLLLALRSGAFRKRQVLGLSAGLSSV

binding: binds
B2: FANCE (protein, UniProt Q9HB96 1-536)
chain: MATPDAGLPGAEGVEPAPWAQLEAPARLLLQALQAGPEGARRGLGVLRALGSRGWEPFDWGRLLEALCREEPVVQGPDGRLELKPLLLRLPRICQRNLMSLLMAVRPSLPESGLLSVLQIAQQDLAPDPDAWLRALGELLRRDLGVGTSMEGASPLSERCQRQLQSLCRGLGLGGRRLKSPQAPDPEEEENRDSQQPGKRRKDSEEEAASPEGKRVPKRLRCWEEEEDHEKERPEHKSLESLADGGSASPIKDQPVMAVKTGEDGSNLDDAKGLAESLELPKAIQDQLPRLQQLLKTLEEGLEGLEDAPPVELQLLHECSPSQMDLLCAQLQLPQLSDLGLLRLCTWLLALSPDLSLSNATVLTRSLFLGRILSLTSSASRLLTTALTSFCAKYTYPVCSALLDPVLQAPGTGPAQTELLCCLVKMESLEPDAQVLMLGQILELPWKEETFLVLQSLLERQVEMTPEKFSVLMEKLCKKGLAATTSMAYAKLMLTVMTKYQANITETQRLGLAMALEPNTTFLRKSLKAALKHLGP

Source: paper PMC7039436
